The list does not hold the whole screen: it gathers tests that were run many times, whatever their T/C, doses with no T/C, and many T/C values between a quarter and a half above the control. Other doses and runs of a compound stand elsewhere. T/C is the treated group as % of the vehicle group. Some entries give survivors of the animals treated and no T/C: the source files T/C as zero there, which appears to mark a toxic dose or a test without result, not a measured value. Some survivor counts are full or nearly so, which does not show that the dose was tolerated: the source hardly ever lists a survival T/C far under the control, and the zero likely stands for such cases as well. Survivors were counted at the toxicity check, usually on the fifth day, unless a day is given; later deaths do not show. Schedule codes are those of the source, taken here to give the interval after Q, in days (D) or hours (H), and the number of doses after X. Where survival is the endpoint, this PubChem deposit counts one and a half times the control or more as active, and values a quarter to a half above the control carry no call in these data; other NCI protocols may use other cut-offs. Some entries were tested several times; the values are given in rising order.
System: CD2F1 mice, L1210 leukemia ip, survival T/C
Assay: NCI In Vivo Anticancer Drug Screen. Data for tumor model L1210 Leukemia (intraperitoneal) in CD2F1 (CDF1) mice
Conditions: higher T/C = longer survival
Procedure, shortened: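 Ratio T/C, where T is the treated-group value and C the vehicle-dosed control value, from mice implanted with a transplantable tumor.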

[1] = T/C endpoint: mean survival time, dose: 200.0 mg/kg/injection, schedule: Q04DX002 (ip), vehicle: saline with Tween-80
[2] = T/C endpoint: mean survival time, dose: 400.0 mg/kg/injection, schedule: Q04DX002 (ip), vehicle: saline with Tween-80

## CCCCOP(=O)(OCCCC)[O][Pb]([CH2]C)([CH2]C)[CH2]C
T/C endpoint: mean survival time, dose: 25.0 mg/kg/injection, schedule: Q04DX003 (ip), vehicle: saline with Tween-80
  survivor count: 0 of 6

## N=C(N)c1cc(Cl)c(OCc2ccccc2)c(Cl)c1
T/C endpoint: mean survival time, dose: 100.0 mg/kg/injection, schedule: Q04DX003 (ip), vehicle: saline with Tween-80
  survivor count: 4 of 6

## C1=CC2CC3(OCCO3)C2C1 (centres undefined)
T/C endpoint: mean survival time, dose: 400.0 mg/kg/injection, schedule: Q01DX009 (ip), vehicle: saline with Tween-80
  survivor count: 6 of 6

## Cc1ccc2ccccc2[n+]1[O-]
[1]
  survivor count: 0 of 3
[2]
  survivor count: 0 of 3

## O=c1[nH]cnc2c1nnn2C1OC(CO)C(O)C1O (centres undefined)
T/C endpoint: median survival time, dose: 50.0 mg/kg/injection, schedule: Q01DX005 (ip), vehicle: saline
  T/C: 133 % of control
T/C endpoint: median survival time, dose: 72.0 mg/kg/injection, schedule: Q01DX005 (ip), vehicle: saline
  T/C: 132 % of control
T/C endpoint: median survival time, dose: 100.0 mg/kg/injection, schedule: Q01DX005 (ip), vehicle: saline
  T/C: 133 and 140 % of control
T/C endpoint: median survival time, dose: 120.0 mg/kg/injection, schedule: Q01DX005 (ip), vehicle: saline
  T/C: 142 % of control
T/C endpoint: median survival time, dose: 144.0 mg/kg/injection, schedule: Q01DX005 (ip), vehicle: suspension in saline
  T/C: 141 % of control
T/C endpoint: median survival time, dose: 200.0 mg/kg/injection, schedule: Q01DX005 (ip), vehicle: saline
  T/C: 143 % of control
T/C endpoint: median survival time, dose: 240.0 mg/kg/injection, schedule: Q01DX005 (ip), vehicle: suspension in saline
  T/C: 138 % of control
T/C endpoint: median survival time, dose: 333.3 mg/kg/injection, schedule: Q01DX005 (ip), vehicle: saline
  T/C: 148 % of control
T/C endpoint: median survival time, dose: 400.0 mg/kg/injection, schedule: Q01DX005 (ip), vehicle: saline
  T/C: 134 % of control
T/C endpoint: median survival time, dose: 555.5 mg/kg/injection, schedule: Q01DX005 (ip), vehicle: saline
  T/C: 144 % of control
T/C endpoint: median survival time, dose: 666.6 mg/kg/injection, schedule: Q01DX005 (ip), vehicle: suspension in saline
  survivor count: 6 of 6
T/C endpoint: median survival time, dose: 800.0 mg/kg/injection, schedule: Q01DX005 (ip), vehicle: saline
  survivor count: 5 of 6
T/C endpoint: median survival time, dose: 1111.1 mg/kg/injection, schedule: Q01DX005 (ip), vehicle: suspension in saline
  survivor count: 5 of 6

## CCOC(=O)CC/C=C\Cc1c(OC)c(C)c2c(c1OC(=O)Nc1ccc(C(C)=O)cc1)C(=O)OC2
[1]
  T/C: 137 % of control
[2]
  T/C: 133 % of control
T/C endpoint: median survival time, dose: 100.0 mg/kg/injection, schedule: Q04DX002 (ip), vehicle: saline with Tween-80
  T/C: 125 % of control
T/C endpoint: median survival time, dose: 200.0 mg/kg/injection, schedule: Q04DX002 (ip), vehicle: saline with Tween-80
  T/C: 140 % of control
T/C endpoint: median survival time, dose: 400.0 mg/kg/injection, schedule: Q04DX002 (ip), vehicle: saline with Tween-80
  T/C: 143 % of control

## C=CC=O
T/C endpoint: mean survival time, dose: 3.75 mg/kg/injection, schedule: Q01DX009 (ip), vehicle: saline
  survivor count: 0 of 6
T/C endpoint: mean survival time, dose: 7.5 mg/kg/injection, schedule: Q01DX009 (ip), vehicle: saline
  survivor count: 0 of 6

## C[CH2][Sn]1([CH2]C)[O]C2C(CO)OC(n3ccc(N)nc3=O)C2[O]1 (centres undefined)
T/C endpoint: mean survival time, dose: 25.0 mg/kg/injection, schedule: Q01DX005 (ip), vehicle: other
  survivor count: 1 of 6
T/C endpoint: mean survival time, dose: 25.0 mg/kg/injection, schedule: Q01DX005 (ip), vehicle: water
  survivor count: 0 of 6
T/C endpoint: mean survival time, dose: 50.0 mg/kg/injection, schedule: Q01DX005 (ip), vehicle: other
  survivor count: 0 of 6
T/C endpoint: mean survival time, dose: 100.0 mg/kg/injection, schedule: Q01DX005 (ip), vehicle: other
  survivor count: 0 of 6
T/C endpoint: mean survival time, dose: 200.0 mg/kg/injection, schedule: Q01DX005 (ip), vehicle: other
  survivor count: 0 of 6

## CCC(C)C(NC(=O)OCc1ccccc1)C(=O)NC(C(=O)NC(CCC(=O)OC(C)(C)C)C(=O)OC)C(C)C (centres undefined)
T/C endpoint: mean survival time, dose: 200.0 mg/kg/injection, schedule: Q04DX003 (ip), vehicle: saline sonified
  survivor count: 6 of 6

## COc1cc2c(c(OC)c1OC)-c1ccc(OC)c(=O)cc1[C@@H](NC(=O)CF)CC2
T/C endpoint: mean survival time, dose: 0.09 mg/kg/injection, schedule: Q01DX009 (ip), vehicle: saline
  T/C: 130 % of control
T/C endpoint: mean survival time, dose: 0.18 mg/kg/injection, schedule: Q01DX009 (ip), vehicle: saline
  T/C: 143 % of control
T/C endpoint: mean survival time, dose: 0.75 mg/kg/injection, schedule: Q01DX009 (ip), vehicle: saline
  survivor count: 1 of 6

— PubChem BioAssay AID256 (DTP/NCI, 2004)
